Reference: paper PMC6546063
No constants are given. Whether binding was seen depends on the method and setting. In cells and extracts the contact can be indirect. A yes stands for co-enrichment or nearness to the bait. Other partners may have been found.

Sequences of proteins named here, by UniProt entry; tags and fusion partners are left off.
UniProt O00308: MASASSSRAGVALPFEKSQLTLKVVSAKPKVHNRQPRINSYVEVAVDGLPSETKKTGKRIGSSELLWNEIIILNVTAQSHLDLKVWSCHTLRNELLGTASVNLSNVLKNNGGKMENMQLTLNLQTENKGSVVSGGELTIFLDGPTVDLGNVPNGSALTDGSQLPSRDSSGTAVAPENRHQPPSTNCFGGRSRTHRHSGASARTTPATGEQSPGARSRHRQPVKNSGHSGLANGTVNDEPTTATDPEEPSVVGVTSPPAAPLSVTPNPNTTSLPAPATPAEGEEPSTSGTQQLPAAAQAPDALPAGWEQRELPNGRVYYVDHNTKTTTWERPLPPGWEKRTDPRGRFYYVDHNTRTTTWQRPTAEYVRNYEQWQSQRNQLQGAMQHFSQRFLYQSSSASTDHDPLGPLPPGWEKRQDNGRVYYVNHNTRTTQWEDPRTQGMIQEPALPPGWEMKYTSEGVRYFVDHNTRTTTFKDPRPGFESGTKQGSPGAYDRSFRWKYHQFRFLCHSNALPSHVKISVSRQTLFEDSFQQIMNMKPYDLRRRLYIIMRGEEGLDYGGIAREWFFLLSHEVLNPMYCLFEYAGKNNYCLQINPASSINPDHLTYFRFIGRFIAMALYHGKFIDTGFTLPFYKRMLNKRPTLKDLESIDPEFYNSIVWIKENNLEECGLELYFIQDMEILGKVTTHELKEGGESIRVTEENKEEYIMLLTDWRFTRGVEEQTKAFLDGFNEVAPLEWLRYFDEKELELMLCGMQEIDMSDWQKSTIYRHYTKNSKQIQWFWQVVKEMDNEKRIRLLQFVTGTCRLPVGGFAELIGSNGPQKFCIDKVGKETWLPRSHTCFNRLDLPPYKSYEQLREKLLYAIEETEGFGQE
UniProt P13010: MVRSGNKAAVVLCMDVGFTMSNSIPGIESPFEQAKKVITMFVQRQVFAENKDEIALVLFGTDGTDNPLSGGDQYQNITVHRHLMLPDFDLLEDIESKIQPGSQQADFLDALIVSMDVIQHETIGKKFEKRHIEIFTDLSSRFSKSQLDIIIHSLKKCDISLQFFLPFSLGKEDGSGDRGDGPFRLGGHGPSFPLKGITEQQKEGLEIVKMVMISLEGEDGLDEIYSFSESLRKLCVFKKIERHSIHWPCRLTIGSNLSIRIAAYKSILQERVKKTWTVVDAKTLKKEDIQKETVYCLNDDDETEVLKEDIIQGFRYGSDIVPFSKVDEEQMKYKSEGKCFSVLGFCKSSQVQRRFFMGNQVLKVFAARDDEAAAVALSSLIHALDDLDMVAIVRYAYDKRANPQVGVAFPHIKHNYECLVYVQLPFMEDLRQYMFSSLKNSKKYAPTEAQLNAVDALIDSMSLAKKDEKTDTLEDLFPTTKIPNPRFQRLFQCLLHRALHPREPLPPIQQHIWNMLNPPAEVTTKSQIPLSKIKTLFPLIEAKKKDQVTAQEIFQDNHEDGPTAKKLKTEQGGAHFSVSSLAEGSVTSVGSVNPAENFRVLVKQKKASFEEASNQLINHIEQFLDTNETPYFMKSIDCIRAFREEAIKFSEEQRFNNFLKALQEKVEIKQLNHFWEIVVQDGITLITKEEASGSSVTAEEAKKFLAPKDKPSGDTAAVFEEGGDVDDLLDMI
UniProt P09874: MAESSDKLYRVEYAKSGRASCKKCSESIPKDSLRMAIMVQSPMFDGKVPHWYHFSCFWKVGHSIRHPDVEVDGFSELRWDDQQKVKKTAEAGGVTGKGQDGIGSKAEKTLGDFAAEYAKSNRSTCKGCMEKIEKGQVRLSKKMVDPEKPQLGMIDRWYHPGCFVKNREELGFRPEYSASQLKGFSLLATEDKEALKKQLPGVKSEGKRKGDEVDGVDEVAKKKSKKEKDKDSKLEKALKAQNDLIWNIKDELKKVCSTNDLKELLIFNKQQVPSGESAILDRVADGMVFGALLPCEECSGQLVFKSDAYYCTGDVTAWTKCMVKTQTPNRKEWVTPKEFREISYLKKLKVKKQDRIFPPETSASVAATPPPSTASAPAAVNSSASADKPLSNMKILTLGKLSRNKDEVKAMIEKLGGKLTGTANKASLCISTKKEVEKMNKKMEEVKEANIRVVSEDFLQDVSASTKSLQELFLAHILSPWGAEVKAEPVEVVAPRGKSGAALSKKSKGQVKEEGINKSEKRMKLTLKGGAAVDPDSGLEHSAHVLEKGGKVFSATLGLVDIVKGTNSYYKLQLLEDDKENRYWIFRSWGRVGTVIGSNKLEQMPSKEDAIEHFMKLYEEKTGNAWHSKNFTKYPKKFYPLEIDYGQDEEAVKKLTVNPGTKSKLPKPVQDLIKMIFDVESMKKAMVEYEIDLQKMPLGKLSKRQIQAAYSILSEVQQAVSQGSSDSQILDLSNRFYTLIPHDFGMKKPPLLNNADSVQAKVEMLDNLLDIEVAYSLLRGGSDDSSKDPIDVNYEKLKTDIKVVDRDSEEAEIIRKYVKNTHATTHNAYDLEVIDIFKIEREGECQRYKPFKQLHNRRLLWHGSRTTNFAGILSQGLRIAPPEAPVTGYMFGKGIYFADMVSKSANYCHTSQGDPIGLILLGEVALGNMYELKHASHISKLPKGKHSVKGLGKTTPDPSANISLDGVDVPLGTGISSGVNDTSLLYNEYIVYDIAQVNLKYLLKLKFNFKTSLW

Target: GFP-tagged WWP2 (human) (UniProt O00308)
Test: affinity purification with mass spectrometry; SILAC: U2OS cells with GFP-WWP2 (H) or GFP-NLS (L) lysed in EBC buffer (50 mM Tris pH 7.5, 150 mM NaCl, 0.5% NP-40, 2.5 mM MgCl2) with benzonase; GFP-Trap-A beads, washed with EBC-300; at least twofold enriched over control

Row | Substance | binding
1 | Ku80 (endogenous) (from UniProt P13010 1-732) | binds
2 | PARP1 (from UniProt P09874 1-1014) (enzyme) | binds
